PubChem BioAssay AID1159578 | Peter MacCallum Cancer Centre – 2015

Purpose: 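Genome-wide hunt for genes controlling movement of lymphatic endothelial cells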 (primary screen)
Cell system: human lymphatic endothelial cells
Knock-down reagent: siRNA pool against human genes, 40 nM
Time to read-out: 48 h after transfection
Read-out: 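Cells stained with dye and imaged after a scratch; covered wound area and nuclei counted, duplicates averaged, migration set against mock wells and turned into a robust z-score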
Direction: migration robust z-score: higher = faster migration into the scratch; migration relative to mock: higher = more scratch area covered than mock; nuclei per well: higher = more cells in the well
Active means: 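Migration changed when robust z exceeds 2 or falls below -2 and mean nuclei number is at least 3300; otherwise not called changed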
Meaning of the calls: active = migration changed; inactive = no migration change, or too few cells
Shown is a random part of about 18,000 reagents tested. About 1,030 of them (5.7%) were called active. 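Inactive calls also include pools with fewer than 3300 nuclei, whose migration was not assessed.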 Raw values are not corrected between plates.

gene knocked down | migration robust z-score | migration class with cell-count check | migration relative to mock | nuclei per well, duplicate mean | Call
AP2A1 (adaptor related protein complex 2 subunit alpha 1) | -0.62 | migration z between -2 and 2; enough cells | 0.72 | 6436 | inactive
SMYD4 (SET and MYND domain containing 4) | -1.42 | migration z between -2 and 2; enough cells | 0.52 | 6393 | inactive
COX6A1 (cytochrome c oxidase subunit 6A1) | -0.58 | migration z between -2 and 2; enough cells | 0.74 | 6736 | inactive
SLC22A16 | 0.72 | migration z between -2 and 2; enough cells | 1.07 | 5746 | inactive
CCNH (cyclin H) | -0.08 | migration z between -2 and 2; enough cells | 0.79 | 6848 | inactive
PEF1 (penta-EF-hand domain containing 1) | -0.16 | migration z between -2 and 2; enough cells | 0.84 | 5496 | inactive
GSX2 (GS homeobox 2) | 0.34 | migration z between -2 and 2; enough cells | 0.98 | 6669 | inactive
RFC5 (replication factor C subunit 5) | -0.47 | migration z between -2 and 2; enough cells | 0.72 | 5122 | inactive
BICD1 (BICD cargo adaptor 1) | -0.86 | migration z between -2 and 2; enough cells | 0.66 | 5589 | inactive
AQP12A (aquaporin 12A) | -1.2 | under 3300 nuclei; migration not judged | 0.57 | 3254 | inactive
MTM1 (myotubularin 1) | 0.21 | migration z between -2 and 2; enough cells | 0.84 | 6714 | inactive
FBLN2 (fibulin 2) | -0.21 | migration z between -2 and 2; enough cells | 0.83 | 5430 | inactive
SH3GL2 (SH3 domain containing GRB2 like 2, endophilin A1) | -0.1 | migration z between -2 and 2; enough cells | 0.78 | 6867 | inactive
CTCF (CCCTC-binding factor) | 0.31 | migration z between -2 and 2; enough cells | 0.86 | 4979 | inactive
ERCC2 (ERCC excision repair 2, TFIIH core complex helicase subunit) | 0.73 | migration z between -2 and 2; enough cells | 0.94 | 5822 | inactive
GARIN3 (golgi associated RAB2 interactor family member 3) | -1.4 | migration z between -2 and 2; enough cells | 0.52 | 5730 | inactive
EIF4ENIF1 | 0.06 | migration z between -2 and 2; enough cells | 0.82 | 4112 | inactive
YES1 (YES proto-oncogene 1, Src family tyrosine kinase) | -0.86 | migration z between -2 and 2; enough cells | 0.64 | 5080 | inactive
PPP3R1 (protein phosphatase 3 regulatory subunit B, alpha) | 0.42 | migration z between -2 and 2; enough cells | 0.88 | 5470 | inactive
PDCD1 (programmed cell death 1) | 0.97 | migration z between -2 and 2; enough cells | 1.14 | 5462 | inactive
TLX2 (T cell leukemia homeobox 2) | -0.88 | migration z between -2 and 2; enough cells | 0.64 | 5763 | inactive
TNP2 (transition protein 2) | 1.01 | migration z between -2 and 2; enough cells | 1.15 | 6144 | inactive
AGFG2 (ArfGAP with FG repeats 2) | -0.68 | migration z between -2 and 2; enough cells | 0.71 | 5774 | inactive
